Assay results: the supplement of paper PMC6411743
± gives the standard deviation of the averaged measurements. Only a part is listed here, and it is no random draw.

Protein sequences, listed by entry. Tags and fused reporters are not part of them. Lines headed by an entry give the natural chain unless they say otherwise; changes in a name come on top.
UniProt O75674: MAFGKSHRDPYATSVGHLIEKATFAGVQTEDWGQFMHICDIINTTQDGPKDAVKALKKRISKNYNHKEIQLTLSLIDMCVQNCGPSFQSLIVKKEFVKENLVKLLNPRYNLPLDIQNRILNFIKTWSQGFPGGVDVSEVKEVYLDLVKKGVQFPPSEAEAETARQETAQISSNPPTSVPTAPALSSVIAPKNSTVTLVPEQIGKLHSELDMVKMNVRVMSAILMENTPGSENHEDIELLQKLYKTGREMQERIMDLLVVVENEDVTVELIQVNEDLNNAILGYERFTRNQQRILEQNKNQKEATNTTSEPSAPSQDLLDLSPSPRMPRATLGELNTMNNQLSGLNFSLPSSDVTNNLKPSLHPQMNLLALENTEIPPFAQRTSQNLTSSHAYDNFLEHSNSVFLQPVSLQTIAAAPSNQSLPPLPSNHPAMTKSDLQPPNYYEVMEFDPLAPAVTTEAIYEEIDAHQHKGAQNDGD
UniProt P13797: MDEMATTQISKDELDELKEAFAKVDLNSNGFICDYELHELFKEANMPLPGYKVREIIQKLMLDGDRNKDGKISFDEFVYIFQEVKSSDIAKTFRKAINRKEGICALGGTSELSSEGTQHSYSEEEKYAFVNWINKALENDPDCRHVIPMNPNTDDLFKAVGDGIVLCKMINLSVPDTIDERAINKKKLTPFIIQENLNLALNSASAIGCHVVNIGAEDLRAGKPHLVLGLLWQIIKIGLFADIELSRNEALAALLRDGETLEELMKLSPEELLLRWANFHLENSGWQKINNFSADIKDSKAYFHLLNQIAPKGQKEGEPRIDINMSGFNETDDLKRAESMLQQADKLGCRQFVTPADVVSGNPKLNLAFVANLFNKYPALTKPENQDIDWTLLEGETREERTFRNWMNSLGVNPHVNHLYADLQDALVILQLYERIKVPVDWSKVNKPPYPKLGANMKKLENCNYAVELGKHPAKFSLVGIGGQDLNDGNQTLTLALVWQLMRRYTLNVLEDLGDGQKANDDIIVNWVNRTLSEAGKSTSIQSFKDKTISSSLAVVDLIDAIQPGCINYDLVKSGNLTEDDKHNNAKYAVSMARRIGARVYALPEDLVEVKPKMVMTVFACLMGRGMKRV
UniProt P62191: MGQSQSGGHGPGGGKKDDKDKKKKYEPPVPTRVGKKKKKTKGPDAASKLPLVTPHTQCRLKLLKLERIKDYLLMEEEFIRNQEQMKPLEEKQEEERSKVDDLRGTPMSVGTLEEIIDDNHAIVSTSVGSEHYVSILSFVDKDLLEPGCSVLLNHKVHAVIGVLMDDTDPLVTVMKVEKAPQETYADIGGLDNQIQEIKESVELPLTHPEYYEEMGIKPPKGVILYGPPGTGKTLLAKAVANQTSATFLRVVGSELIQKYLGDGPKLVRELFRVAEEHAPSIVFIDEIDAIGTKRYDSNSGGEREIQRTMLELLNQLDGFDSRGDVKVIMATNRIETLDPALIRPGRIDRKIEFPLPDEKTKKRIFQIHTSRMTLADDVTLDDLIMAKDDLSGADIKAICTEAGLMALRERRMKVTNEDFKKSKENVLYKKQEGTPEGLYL
UniProt Q8N1S5: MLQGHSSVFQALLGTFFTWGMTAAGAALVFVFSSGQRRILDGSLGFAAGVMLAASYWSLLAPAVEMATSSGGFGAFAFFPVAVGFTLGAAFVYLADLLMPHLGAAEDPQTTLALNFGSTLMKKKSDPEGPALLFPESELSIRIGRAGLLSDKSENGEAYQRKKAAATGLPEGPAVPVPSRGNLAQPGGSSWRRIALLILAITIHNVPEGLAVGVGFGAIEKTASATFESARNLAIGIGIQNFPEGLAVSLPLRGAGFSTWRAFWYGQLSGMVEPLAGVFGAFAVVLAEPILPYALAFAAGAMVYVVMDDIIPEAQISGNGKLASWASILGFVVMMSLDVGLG
UniProt Q7RTR2: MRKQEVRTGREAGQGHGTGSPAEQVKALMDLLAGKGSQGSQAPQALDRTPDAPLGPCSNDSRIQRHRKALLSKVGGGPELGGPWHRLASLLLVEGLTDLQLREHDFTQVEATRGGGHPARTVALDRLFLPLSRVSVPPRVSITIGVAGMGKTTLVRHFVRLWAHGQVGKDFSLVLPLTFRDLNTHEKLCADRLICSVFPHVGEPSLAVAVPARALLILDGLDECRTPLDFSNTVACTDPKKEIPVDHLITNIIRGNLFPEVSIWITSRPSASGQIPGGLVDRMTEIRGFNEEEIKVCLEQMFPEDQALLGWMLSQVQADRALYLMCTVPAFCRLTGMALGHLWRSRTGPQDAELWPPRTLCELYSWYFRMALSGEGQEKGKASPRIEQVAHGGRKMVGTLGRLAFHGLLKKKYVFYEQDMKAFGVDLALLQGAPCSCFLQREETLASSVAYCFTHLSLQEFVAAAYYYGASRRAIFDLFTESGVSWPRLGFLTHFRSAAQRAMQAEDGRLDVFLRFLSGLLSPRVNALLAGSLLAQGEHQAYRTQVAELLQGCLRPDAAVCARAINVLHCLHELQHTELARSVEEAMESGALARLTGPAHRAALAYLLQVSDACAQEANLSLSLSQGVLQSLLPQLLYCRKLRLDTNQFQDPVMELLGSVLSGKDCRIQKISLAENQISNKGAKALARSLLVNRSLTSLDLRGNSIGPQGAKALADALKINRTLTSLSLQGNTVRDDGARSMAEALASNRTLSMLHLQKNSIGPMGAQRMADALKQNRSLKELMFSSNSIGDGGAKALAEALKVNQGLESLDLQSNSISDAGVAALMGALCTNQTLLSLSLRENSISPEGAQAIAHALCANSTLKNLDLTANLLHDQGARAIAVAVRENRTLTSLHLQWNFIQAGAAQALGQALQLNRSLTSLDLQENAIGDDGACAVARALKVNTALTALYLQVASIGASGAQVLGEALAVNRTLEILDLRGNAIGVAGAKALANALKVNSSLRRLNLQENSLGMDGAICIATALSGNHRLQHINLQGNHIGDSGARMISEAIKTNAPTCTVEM
UniProt O14893: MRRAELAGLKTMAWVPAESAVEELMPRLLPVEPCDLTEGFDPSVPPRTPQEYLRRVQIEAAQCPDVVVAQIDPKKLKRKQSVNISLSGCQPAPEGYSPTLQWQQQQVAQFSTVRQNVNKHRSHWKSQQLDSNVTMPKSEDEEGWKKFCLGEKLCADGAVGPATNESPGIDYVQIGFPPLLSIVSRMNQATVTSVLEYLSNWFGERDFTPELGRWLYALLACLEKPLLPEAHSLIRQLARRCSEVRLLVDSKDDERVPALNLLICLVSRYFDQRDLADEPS
UniProt Q9Y2Z9: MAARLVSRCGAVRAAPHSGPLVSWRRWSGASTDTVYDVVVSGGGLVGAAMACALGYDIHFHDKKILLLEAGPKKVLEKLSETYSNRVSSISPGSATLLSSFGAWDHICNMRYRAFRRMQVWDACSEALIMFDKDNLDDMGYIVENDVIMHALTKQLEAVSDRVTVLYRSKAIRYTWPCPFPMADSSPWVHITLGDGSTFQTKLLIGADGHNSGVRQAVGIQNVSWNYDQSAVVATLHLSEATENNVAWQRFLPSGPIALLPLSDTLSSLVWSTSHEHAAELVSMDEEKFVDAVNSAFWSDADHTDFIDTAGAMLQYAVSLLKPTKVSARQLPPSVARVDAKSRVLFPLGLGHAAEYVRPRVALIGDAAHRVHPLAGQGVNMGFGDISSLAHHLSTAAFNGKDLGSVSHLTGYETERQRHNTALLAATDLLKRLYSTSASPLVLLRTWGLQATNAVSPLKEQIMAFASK
UniProt Q9Y2L5: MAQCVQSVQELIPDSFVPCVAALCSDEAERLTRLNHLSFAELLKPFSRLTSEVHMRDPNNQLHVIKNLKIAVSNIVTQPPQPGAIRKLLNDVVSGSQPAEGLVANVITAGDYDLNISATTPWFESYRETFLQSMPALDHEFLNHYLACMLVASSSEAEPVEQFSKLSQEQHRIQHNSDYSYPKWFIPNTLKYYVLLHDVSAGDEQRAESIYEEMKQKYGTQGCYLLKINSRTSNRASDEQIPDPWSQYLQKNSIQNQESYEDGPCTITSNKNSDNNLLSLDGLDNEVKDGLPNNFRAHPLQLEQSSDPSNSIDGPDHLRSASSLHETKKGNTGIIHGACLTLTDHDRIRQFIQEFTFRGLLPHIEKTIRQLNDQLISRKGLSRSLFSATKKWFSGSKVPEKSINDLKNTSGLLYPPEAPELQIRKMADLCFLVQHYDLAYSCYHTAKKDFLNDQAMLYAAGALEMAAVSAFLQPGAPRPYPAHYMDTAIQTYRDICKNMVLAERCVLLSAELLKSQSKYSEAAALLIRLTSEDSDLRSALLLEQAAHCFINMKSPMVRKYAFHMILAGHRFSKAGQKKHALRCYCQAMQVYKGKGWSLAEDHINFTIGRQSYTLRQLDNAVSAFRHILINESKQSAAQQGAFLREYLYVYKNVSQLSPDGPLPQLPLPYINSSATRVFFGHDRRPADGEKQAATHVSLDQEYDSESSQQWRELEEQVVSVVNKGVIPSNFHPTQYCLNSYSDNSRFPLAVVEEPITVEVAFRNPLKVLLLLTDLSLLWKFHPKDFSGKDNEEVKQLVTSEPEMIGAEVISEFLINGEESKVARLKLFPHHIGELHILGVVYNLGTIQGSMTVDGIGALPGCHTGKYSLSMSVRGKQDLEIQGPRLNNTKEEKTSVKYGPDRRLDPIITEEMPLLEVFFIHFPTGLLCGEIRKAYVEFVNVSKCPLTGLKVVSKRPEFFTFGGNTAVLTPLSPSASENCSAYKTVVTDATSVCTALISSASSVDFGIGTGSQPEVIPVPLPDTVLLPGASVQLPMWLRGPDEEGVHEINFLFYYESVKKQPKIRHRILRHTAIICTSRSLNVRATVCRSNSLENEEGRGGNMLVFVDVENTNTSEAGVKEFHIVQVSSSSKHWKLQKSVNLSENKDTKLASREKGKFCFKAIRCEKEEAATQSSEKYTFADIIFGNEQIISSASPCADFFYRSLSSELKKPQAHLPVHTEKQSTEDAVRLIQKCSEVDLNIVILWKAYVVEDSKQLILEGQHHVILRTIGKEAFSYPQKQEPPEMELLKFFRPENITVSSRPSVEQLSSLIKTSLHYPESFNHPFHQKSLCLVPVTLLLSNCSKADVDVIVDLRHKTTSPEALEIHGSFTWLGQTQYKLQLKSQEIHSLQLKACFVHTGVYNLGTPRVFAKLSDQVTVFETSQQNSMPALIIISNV
UniProt Q66K89: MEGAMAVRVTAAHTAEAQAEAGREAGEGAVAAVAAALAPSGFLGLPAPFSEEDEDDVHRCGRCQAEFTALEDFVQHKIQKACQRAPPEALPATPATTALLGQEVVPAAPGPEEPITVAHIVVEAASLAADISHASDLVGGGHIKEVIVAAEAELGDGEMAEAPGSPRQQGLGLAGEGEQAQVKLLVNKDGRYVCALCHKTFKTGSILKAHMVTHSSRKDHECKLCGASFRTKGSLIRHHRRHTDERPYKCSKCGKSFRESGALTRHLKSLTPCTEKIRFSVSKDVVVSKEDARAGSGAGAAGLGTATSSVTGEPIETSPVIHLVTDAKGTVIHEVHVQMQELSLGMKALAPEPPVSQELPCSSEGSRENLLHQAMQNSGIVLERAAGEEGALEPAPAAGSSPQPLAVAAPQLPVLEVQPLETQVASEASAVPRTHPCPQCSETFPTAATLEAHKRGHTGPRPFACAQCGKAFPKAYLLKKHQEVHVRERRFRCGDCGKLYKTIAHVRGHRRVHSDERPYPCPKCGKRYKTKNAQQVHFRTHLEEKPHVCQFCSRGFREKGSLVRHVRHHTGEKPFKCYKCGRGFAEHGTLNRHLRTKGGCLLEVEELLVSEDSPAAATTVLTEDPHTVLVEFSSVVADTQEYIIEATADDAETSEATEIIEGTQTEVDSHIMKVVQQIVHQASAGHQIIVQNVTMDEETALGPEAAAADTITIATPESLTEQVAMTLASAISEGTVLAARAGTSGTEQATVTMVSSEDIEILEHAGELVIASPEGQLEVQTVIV

Compound: Nc1ncnc2c1ncn2[C@@H]1O[C@H](COP(=O)(O)OP(=O)(O)NP(=O)(O)O)[C@@H](O)[C@H]1O [adenylyl imidodiphosphate]
Experiment: NP40-soluble protein abundance relative to vehicle (solubility fold change) (ratio); higher = more soluble protein in presence of AMP-PNP
In short: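 Jurkat crude lysate prepared with a Dounce homogeniser was treated at eight concentrations spanning 0.1 to 10 mM, 10 min at room temperature then 3 min at 37 °C. Solubilisation with 0.8% NP40 and benzonase and ultracentrifugation preceded TMT labelling of the supernatant for LC-MS/MS. Fold change against the detergent-processed vehicle was determined per replicate from vsn-normalised intensities, across three independent experiments.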

Target | NP40-soluble protein abundance (concentration: 1mM) | NP40-soluble protein abundance (concentration: 2mM) | NP40-soluble protein abundance (concentration: 4mM) | NP40-soluble protein abundance (concentration: 6mM) | NP40-soluble protein abundance (concentration: 8mM) | NP40-soluble protein abundance (concentration: 10mM)
I3L4I4 and related entries (UniProt O75674) | 1 ± 0.03 | 1.02 ± 0.013 | 1.01 ± 0.038 | 0.994 ± 0.015 | 0.981 ± 0.047 | 0.993 ± 0.043
H0YLM8 and related entries (UniProt Q8TDJ6) | 0.95 ± 0.011 | 0.922 ± 0.063 | 0.974 ± 0.018 | 0.918 ± 0.038 | 0.937 ± 0.064 | 0.92 ± 0.052
H7C4N2 and related entries (UniProt P13797) | 0.995 ± 0.024 | 1.02 ± 0.016 | 0.976 ± 0.029 | 0.981 ± 0.031 | 0.961 ± 0.049 | 0.986 ± 0.026
G3V4X1 and related entries (UniProt P62191) | 0.942 ± 0.045 | 0.906 ± 0.049 | 0.888 ± 0.079 | 0.896 ± 0.1 | 0.882 ± 0.1 | 0.89 ± 0.12
H3BSS6 and related entries (UniProt Q9H2Y7) | 1.02 ± 0.014 | 1.02 ± 0.018 | 1.004 ± 0.0087 | 1.01 ± 0.011 | 1.02 ± 0.017 | 1.02 ± 0.029
G3V5T9 and related entries (UniProt P24941) | 0.988 ± 0.06 | 0.934 ± 0.027 | 0.978 ± 0.054 | 1 ± 0.062 | 1.01 ± 0.025 | 0.99 ± 0.055
J3QLB2 and related entries (UniProt Q8N1S5) | 0.989 ± 0.028 | 0.96 ± 0.024 | 0.96 ± 0.027 | 0.954 ± 0.022 | 0.953 ± 0.0096 | 0.952 ± 0.039
H3BLT9 and related entries (UniProt Q7RTR2) | 0.969 ± 0.0088 | 0.9698 ± 0.0089 | 0.9643 ± 0.0042 | 0.947 ± 0.038 | 0.947 ± 0.029 | 0.953 ± 0.032
J3KPP0 and related entries (UniProt Q9Y6G3) | 0.964 ± 0.014 | 0.966 ± 0.037 | 0.941 ± 0.033 | 0.949 ± 0.072 | 0.917 ± 0.068 | 0.925 ± 0.074
H0YEL0 and related entries (UniProt O14893) | 0.965 ± 0.047 | 0.994 ± 0.017 | 0.996 ± 0.059 | 0.969 ± 0.071 | 0.967 ± 0.074 | 0.974 ± 0.065
J3KN16 and related entries (UniProt Q5VYK3+J3KN16) | 1 ± 0.014 | 0.98 ± 0.019 | 1.01 ± 0.026 | 0.963 ± 0.022 | 0.974 ± 0.015 | 0.991 ± 0.023
H0Y9X1 and related entries (UniProt Q96EY4) | 0.95 ± 0.034 | 0.977 ± 0.036 | 0.993 ± 0.046 | 1.14 ± 0.027 | 1.178 ± 0.0055 | 1.33 ± 0.044
G3XA86 and related entries (UniProt Q9Y2Z9) | 0.997 ± 0.025 | 0.98 ± 0.028 | 0.987 ± 0.016 | 0.999 ± 0.022 | 1.01 ± 0.019 | 1.02 ± 0.034
J3QQJ5 and related entries (UniProt Q9Y2L5) | 0.965 ± 0.013 | 0.907 ± 0.074 | 0.9455 ± 0.0081 | 0.9113 ± 0.0088 | 0.942 ± 0.058 | 0.886 ± 0.021
H3BSL4 and related entries (UniProt Q66K89) | 0.9872 ± 0.0082 | 0.982 ± 0.011 | 0.982 ± 0.026 | 0.999 ± 0.011 | 0.979 ± 0.049 | 0.979 ± 0.038

2 consecutive entries from above, for reference:
Target | NP40-soluble protein abundance (concentration: 1mM) | NP40-soluble protein abundance (concentration: 2mM) | NP40-soluble protein abundance (concentration: 4mM) | NP40-soluble protein abundance (concentration: 6mM) | NP40-soluble protein abundance (concentration: 8mM) | NP40-soluble protein abundance (concentration: 10mM)
G3V5T9 and related entries (UniProt P24941) | 0.988 ± 0.06 | 0.934 ± 0.027 | 0.978 ± 0.054 | 1 ± 0.062 | 1.01 ± 0.025 | 0.99 ± 0.055
J3QLB2 and related entries (UniProt Q8N1S5) | 0.989 ± 0.028 | 0.96 ± 0.024 | 0.96 ± 0.027 | 0.954 ± 0.022 | 0.953 ± 0.0096 | 0.952 ± 0.039
